PubChem BioAssay AID1159600 | NIAID | 2016

Screen: 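How human macrophage-like cells depend on pathway genes for TLR7/8 agonist response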 (primary screen)
Cells: human THP-1 TNF reporter clone B5, made macrophage-like with PMA
Reagent: single siRNA against human genes
Time to read-out: 4 h ligand stimulation, assayed 48 to 72 h after siRNA transfection
Challenge: R848 (TLR7/8 agonist) for 4 hours before lysis; dose not given
Measurement: 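TNF promoter firefly to renilla luciferase ratio after 4 h R848, scaled per plate by median and MAD, robust z-score against negative controls, mean of replicates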
Direction: TNF reporter z-score: higher = stronger TNF promoter reporter signal after R848
Active means: 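siRNAs graded by distance of mean z-score from zero in steps of 1, 1.5, 2 and 2.5; active calls sit at roughly -1.5 or below, or 1.5 or above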
Calls: active = strong change in TNF reporter (up or down); inactive = little change
Shown is an unselected part of 756 reagents tested. Of all reagents, 134 (18%) were called active. 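Active includes both reduced and increased reporter signal, though most active siRNAs reduce it; R848 dose unknown.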 Reagents against one gene are numbered here. Not given: the amount of reagent.

target | reagent no. | TNF reporter z-score | activity call
CD14 | 1 | -0.325 | inactive
CD14 | 2 | -0.446 | inactive
CD14 | 3 | 1.85 | active
CD14 | 4 | -2.07 | active
CD14 | 5 | 1.5 | inactive
CD14 | 6 | 0.0398 | inactive
FADD | 1 | 0.168 | inactive
FADD | 2 | -1.47 | inactive
FADD | 3 | -0.145 | inactive
FADD | 4 | -1.13 | inactive
FADD | 5 | -0.463 | inactive
FADD | 6 | -2.18 | active
DUSP1 | 1 | -0.729 | inactive
DUSP1 | 2 | -0.226 | inactive
DUSP1 | 3 | 1.34 | inactive
DUSP1 | 4 | 0.222 | inactive
DUSP1 | 5 | -0.891 | inactive
DUSP1 | 6 | 0.955 | inactive
IKBKE | 1 | -2.43 | active
IKBKE | 2 | -0.325 | inactive
IKBKE | 3 | 1.3 | inactive
IKBKE | 4 | -1.07 | inactive
IKBKE | 5 | -1.22 | inactive
IKBKE | 6 | -2.45 | active
IRAK4 | 1 | -0.331 | inactive
IRAK4 | 2 | 1.15 | inactive
IRAK4 | 3 | -0.532 | inactive
IRAK4 | 4 | -0.532 | inactive
IRAK4 | 5 | -0.341 | inactive
IRAK4 | 6 | -0.672 | inactive
MAP3K7 | 1 | -2.18 | active
MAP3K7 | 2 | -4.23 | active
MAP3K7 | 3 | -4.54 | active
MAP3K7 | 4 | -2.02 | active
MAP3K7 | 5 | -2.75 | active
MAP3K7 | 6 | -1.68 | active
PIK3CG | 1 | -0.51 | inactive
PIK3CG | 2 | -0.79 | inactive
PIK3CG | 3 | -0.126 | inactive
PIK3CG | 4 | -0.392 | inactive
PIK3CG | 5 | 0.33 | inactive
PIK3CG | 6 | -1.16 | inactive
LY96 | 1 | -0.541 | inactive
LY96 | 2 | -1.5 | active
LY96 | 3 | 1.46 | inactive
LY96 | 4 | -0.589 | inactive
LY96 | 5 | 0.846 | inactive
LY96 | 6 | 0.346 | inactive
EGR1 | 1 | -1.61 | active
EGR1 | 2 | -2.19 | active
EGR1 | 3 | -2.84 | active
EGR1 | 4 | -0.915 | inactive
EGR1 | 5 | -0.919 | inactive
EGR1 | 6 | 1.54 | active
MAPK8 | 1 | -0.469 | inactive
MAPK8 | 2 | 1.41 | inactive
MAPK8 | 3 | -0.14 | inactive
MAPK8 | 4 | -0.296 | inactive
MAPK8 | 5 | -1.36 | inactive
MAPK8 | 6 | 0.532 | inactive
AKT2 | 1 | -1.73 | active
AKT2 | 2 | -0.285 | inactive
AKT2 | 3 | -0.582 | inactive
AKT2 | 4 | -1.62 | active
AKT2 | 5 | 1.02 | inactive
AKT2 | 6 | 1.57 | active
NFKBIA | 1 | -0.505 | inactive
NFKBIA | 2 | -0.51 | inactive
NFKBIA | 3 | 2.12 | active
NFKBIA | 4 | -1.72 | active
NFKBIA | 5 | -1.72 | active
NFKBIA | 6 | -0.364 | inactive
IL1B | 1 | 0.129 | inactive
IL1B | 2 | 0.536 | inactive
IL1B | 3 | -0.948 | inactive
IL1B | 4 | -0.278 | inactive
IL1B | 5 | 0.474 | inactive
IL1B | 6 | -0.434 | inactive
CREBBP | 1 | 0.224 | inactive
CREBBP | 2 | -0.0727 | inactive
CREBBP | 3 | -0.317 | inactive
CREBBP | 4 | 1.52 | active
CREBBP | 5 | -1.12 | inactive
CREBBP | 6 | -1.3 | inactive
CASP8 | 1 | -0.337 | inactive
CASP8 | 2 | -1.27 | inactive
CASP8 | 3 | -0.553 | inactive
CASP8 | 4 | -0.51 | inactive
CASP8 | 5 | -0.613 | inactive
CASP8 | 6 | -0.672 | inactive
IKBKG | 1 | -2.49 | active
IKBKG | 2 | -0.145 | inactive
IKBKG | 3 | -0.311 | inactive
IKBKG | 4 | -1.13 | inactive
IKBKG | 5 | 2.17 | active
IKBKG | 6 | 0.0946 | inactive
MAPK12 | 1 | -0.675 | inactive
MAPK12 | 2 | -1.13 | inactive
MAPK12 | 3 | 0.922 | inactive
MAPK12 | 4 | 0.628 | inactive
MAPK12 | 5 | -0.764 | inactive
MAPK12 | 6 | -0.411 | inactive
OTUD5 | 1 | -1.8 | active
OTUD5 | 2 | -0.126 | inactive
OTUD5 | 3 | -1.23 | inactive
OTUD5 | 4 | -0.316 | inactive
OTUD5 | 5 | -0.817 | inactive
OTUD5 | 6 | 1.63 | active
IRF7 | 1 | 0.164 | inactive
IRF7 | 2 | -1.33 | inactive
IRF7 | 3 | -0.531 | inactive
IRF7 | 4 | -1.58 | active
IRF7 | 5 | -1.28 | inactive
IRF7 | 6 | -1.39 | inactive

Laid out differently: results already given.
CD14 #6
- TNF reporter z-score: 0.0398
- activity call: inactive

FADD #1
- TNF reporter z-score: 0.168
- activity call: inactive

FADD #2
- TNF reporter z-score: -1.47
- activity call: inactive

FADD #3
- TNF reporter z-score: -0.145
- activity call: inactive

FADD #4
- TNF reporter z-score: -1.13
- activity call: inactive

FADD #5
- TNF reporter z-score: -0.463
- activity call: inactive

FADD #6
- TNF reporter z-score: -2.18
- activity call: active

DUSP1 #1
- TNF reporter z-score: -0.729
- activity call: inactive

DUSP1 #2
- TNF reporter z-score: -0.226
- activity call: inactive

DUSP1 #3
- TNF reporter z-score: 1.34
- activity call: inactive

DUSP1 #4
- TNF reporter z-score: 0.222
- activity call: inactive

DUSP1 #5
- TNF reporter z-score: -0.891
- activity call: inactive

DUSP1 #6
- TNF reporter z-score: 0.955
- activity call: inactive

IKBKE #1
- TNF reporter z-score: -2.43
- activity call: active

IKBKE #2
- TNF reporter z-score: -0.325
- activity call: inactive

IKBKE #3
- TNF reporter z-score: 1.3
- activity call: inactive

IKBKE #4
- TNF reporter z-score: -1.07
- activity call: inactive

IKBKE #5
- TNF reporter z-score: -1.22
- activity call: inactive

IKBKE #6
- TNF reporter z-score: -2.45
- activity call: active
